The filed quantity is “Percent Effect” (%). The controls that fix the scale are not given in the record; negative values are as filed. This is an unselected part of the compounds tested.

Chains of the proteins cited; added tags and fusions are not shown. Residues count along the entry.
UniProt Q4DA54, 1-478: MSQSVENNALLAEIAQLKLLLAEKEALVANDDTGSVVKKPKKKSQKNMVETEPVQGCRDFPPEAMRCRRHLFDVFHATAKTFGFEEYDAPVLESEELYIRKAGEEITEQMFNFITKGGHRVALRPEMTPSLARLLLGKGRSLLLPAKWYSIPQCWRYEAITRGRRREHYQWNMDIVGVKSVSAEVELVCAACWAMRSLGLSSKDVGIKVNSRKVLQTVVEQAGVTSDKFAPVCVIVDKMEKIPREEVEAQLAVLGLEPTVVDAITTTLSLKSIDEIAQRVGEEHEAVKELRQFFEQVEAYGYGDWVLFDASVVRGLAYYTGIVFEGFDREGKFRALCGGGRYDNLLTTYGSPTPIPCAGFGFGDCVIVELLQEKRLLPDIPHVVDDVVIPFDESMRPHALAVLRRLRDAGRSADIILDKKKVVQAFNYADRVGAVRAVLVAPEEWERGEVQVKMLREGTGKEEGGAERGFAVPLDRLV
UniProt A4I591, 1-473: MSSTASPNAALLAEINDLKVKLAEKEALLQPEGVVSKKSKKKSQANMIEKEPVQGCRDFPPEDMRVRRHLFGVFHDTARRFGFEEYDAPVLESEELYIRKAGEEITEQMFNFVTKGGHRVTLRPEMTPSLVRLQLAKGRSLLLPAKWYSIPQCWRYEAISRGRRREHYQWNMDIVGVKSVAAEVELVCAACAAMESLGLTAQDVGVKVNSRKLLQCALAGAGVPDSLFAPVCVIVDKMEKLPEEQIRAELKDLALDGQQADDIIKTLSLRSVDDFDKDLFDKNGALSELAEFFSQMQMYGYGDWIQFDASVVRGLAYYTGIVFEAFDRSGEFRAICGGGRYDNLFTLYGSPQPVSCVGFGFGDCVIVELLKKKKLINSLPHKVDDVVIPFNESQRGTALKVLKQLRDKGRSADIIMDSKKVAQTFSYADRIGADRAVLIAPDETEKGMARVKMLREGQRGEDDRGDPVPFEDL

A: 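Histidine-tRNA ligase, Trypanosoma cruzi CL Brener (UniProt Q4DA54). Enzyme assay of histidyl-tRNA synthetase; the read-out is not stated. Tested at 30 µM. Higher reads as stronger inhibition (inferred: compounds with an IC50 in retests scored well above the rest). Size under these conditions: about 69,000 compounds, about 31 of them at 50% or above in at least one test.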
B: 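Enzyme assay of histidyl-tRNA synthetase; the read-out is not stated. Target: Histidine-tRNA ligase, Leishmania infantum (UniProt A4I591). Concentration: 30 µM. Higher reads as stronger inhibition (inferred: compounds with an IC50 in retests scored well above the rest). The assay is labelled LdHisRS but filed under L. infantum. Size under these conditions: about 69,000 compounds, about 410 of them at 50% or above in at least one test.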

| # | structure | A | B |
|---|---|---|---|
| 1 | `NC(=O)c1ccc(C(=O)N2CCCCC2C2OCCO2)cc1` (centres undefined) | 12.07% | 11.4% |
| 2 | `O=C(NCCn1ccnc1)N1CCCC1c1ccsc1` (centres undefined) | 0.7634% | 27.66% |
| 3 | `COc1ccccc1CN(Cc1nc(Cc2ccccc2)no1)C1CC1` | 6.468% | 15.66% |
| 4 | `NC(=O)CSc1nnc2[nH]c(=O)c3c(n12)CCCC3` | 0% | 12.17% |
| 5 | `Cn1nc(-c2cccs2)cc1[C@H]1CN2CC[C@H]1C[C@@H]2CN` | -5.473% | 18.92% |
| 6 | `Cc1cc(=O)[nH]cc1C(=O)N1Cc2ccccc2N(C)CC1C` (centres undefined) | 6% | 18.37% |
| 7 | `Cc1ccsc1C(=O)NCC1COCc2c(C)nnn2C1` (centres undefined) | 8.911% | 9.589% |
| 8 | `Cc1nccn1-c1ccc(=O)n(CCNC(=O)c2c(F)cccc2Cl)n1` | 10% | 23.91% |
| 9 | `Cc1ccccc1CN(C)C(=O)CCc1nc(-c2nnc[nH]2)no1` | 5.028% | -2.632% |
| 10 | `Cc1nc(O)cc(CCNC(=O)CN2CCCCCC2)n1` | 4.433% | -19.74% |
| 11 | `O=C(c1sccc1C1CC1)N1CCN(c2cnccn2)CC1` | 5% | 15.32% |
| 12 | `CS(=O)(=O)c1ccc(OCCNCc2cccc(F)c2)cc1` | 3.306% | 13.33% |
| 13 | `CCOc1ccnc(N2CCN(C(=O)c3cn[nH]c3C)CC2)n1` | 2.857% | -38.98% |
| 14 | `CC(CCc1ccccc1)N1CCC(C(=O)Nc2cnccn2)CC1` (centres undefined) | 4.878% | 13.16% |
| 15 | `O=C(NC[C@H]1OC[C@@H](NC2COC2)[C@@H]1O)Nc1ccccc1` | 3.261% | 20.27% |
| 16 | `CC(=O)N1CC[C@H]2OCC[C@@H](C(=O)NCc3ccco3)[C@@H]2C1` | -0.8403% | 10.09% |
| 17 | `Clc1ccc(C(CNCc2ccncc2)n2cccn2)cc1` (centres undefined) | 3.125% | 2.083% |
| 18 | `CCC(C)C(=O)Nc1ccc2oc(=O)n(CCN(C)C)c2c1` (centres undefined) | 11.67% | 27.68% |
| 19 | `Cn1cc(NC(=O)CNC(=O)N2CCN(c3ccccc3)CC2)cn1` | 4.124% | 18.68% |
| 20 | `CN(c1ccncn1)C1CC2(CCN(C(=O)c3ccsc3)C2)C1` (centres undefined) | 1.075% | 17.14% |
| 21 | `Cn1ccnc1CN(CCO)C(=O)c1nc2ccccc2s1` | 4.712% | 4.301% |
| 22 | `CC(C)(C)C(O)CN1CCN(CC(=O)NCC(F)(F)F)CC1` (centres undefined) | -0.8403% | 3.509% |
| 23 | `Cc1cnccc1CN1CCN(C)C2(CCC(=O)N(CC3CC3)CC2)C1` (centres undefined) | 6.122% | 14.52% |
| 24 | `CCN(CC)CCCNc1nccc(-c2cn(C)nc2C)n1` | 0% | 19.44% |
| 25 | `COCC(=O)N1CCc2c(nnn2C)C1COCCN1CCCC1` (centres undefined) | 1.961% | 22.86% |
| 26 | `Cc1ccc(CN(C)C(=O)CNC(C)(C)c2noc(C(C)(C)C)n2)o1` | 12.06% | 17.65% |
| 27 | `CC(=O)N1CCN(Cc2nccs2)CC2(CC(=O)N(C)C2)C1` (centres undefined) | 10.1% | 17.43% |
| 28 | `Cc1nn(C)c2c(N3CCN(C)CC3)nc(C3CC3)nc12` | -2.591% | 15.05% |
| 29 | `CO[C@@H]1CC[C@@H](NC(=O)c2ccc(OCCN3CCCC3)cc2)[C@H]1O` | 11.11% | 11.51% |
| 30 | `COc1cccc(C(=O)N2CCN(C(=O)CCCc3cn[nH]c3)CC2)c1` | 14.29% | 17.05% |
| 31 | `COCCN1C[C@@H](C)[C@@]2(COCCN(C(=O)c3cccc(C)n3)C2)C1` | 6.468% | 13.89% |
| 32 | `COCCN1CCC2(COCCN(Cc3ccc4c(c3)OCO4)C2)C1` (centres undefined) | 2.941% | 17.65% |
| 33 | `COc1cc(C(C)=O)ccc1OCC(=O)N(C)Cc1cnn(C)c1` | -3.03% | 28.79% |
| 34 | `Cc1nc(CCN)cc(N2CCC(O)(c3ccc(Cl)cc3)CC2)n1` | 33.76% | 52.11% |
| 35 | `CCSc1ccc(C(=O)N2CCCCC2C(=O)NC(C)(C)C)cn1` (centres undefined) | 7% | 19.57% |
| 36 | `CCS(=O)(=O)N1Cc2ncn(CC3CC3)c2C(COC)C1` (centres undefined) | 1.869% | 1.389% |
| 37 | `CN1CCC(O)(CNC(=O)c2cc(COc3cccc(F)c3)[nH]n2)CC1` | 4.721% | 13.11% |
| 38 | `Cc1cccc(CN2CCc3onc(Cn4cccc4)c3C2)n1` | 12.22% | 24.53% |
| 39 | `Cc1ccnc(OC[C@@]23CCO[C@@H]2CCN(C2CCC2)C3)n1` | 5.747% | -26.32% |
| 40 | `CCNS(=O)(=O)c1ccc2c(c1)c(=O)n(CC)c(=O)n2CC` | 6.931% | 12.09% |
| 41 | `Cc1ccccc1-c1noc(-c2ccc(NCC3COCCO3)nc2)n1` (centres undefined) | 10.05% | 10.59% |
| 42 | `Cc1cc(C)n(CC(=O)N2CCCC(c3cc4cccnc4[nH]3)C2)n1` (centres undefined) | 2.326% | 11.35% |
| 43 | `CC(C)Cc1nnc(NC(=O)NC(CCO)c2cccs2)s1` (centres undefined) | 4.386% | 14.29% |
| 44 | `CC(C)NC(=O)c1nc2c(s1)CCCN2Cc1ccccc1` | 8.021% | 38.46% |
| 45 | `CC(=O)N1CCCN(CCn2nc3ccccn3c2=O)CC1` | 10.05% | 9.574% |
| 46 | `Fc1ccc2c(c1)C1(CCNCC1)CC2OCC1CC1` (centres undefined) | 1.075% | 13.27% |
| 47 | `N#Cc1ccc(NCC(O)c2ccco2)c(C(F)(F)F)c1` (centres undefined) | 6.433% | 0% |
| 48 | `CCN1C(=O)CCCC12CCCN(C(=O)c1ccoc1C)C2` (centres undefined) | -0.9709% | 11.54% |
| 49 | `COCc1nc(CN2CC(Cc3ccccc3)CC2=O)no1` (centres undefined) | 4.878% | 27.71% |
| 50 | `CN(C)c1ccc(C(=O)N2CCCC(n3cccn3)C2)cn1` (centres undefined) | 0.5917% | 16.07% |
| 51 | `CCOC(=O)C1CCN(C(=O)CN2CCCC2c2ccsc2)CC1` (centres undefined) | 10.34% | 9.091% |
| 52 | `COC(=O)COn1c(SCC(=O)OC)nc2ccccc2c1=O` | 0% | -31.58% |
| 53 | `Cc1ccccc1N1CCN(C(=O)c2cnc(C3CC3)nc2)C(C)C1` (centres undefined) | 5.102% | 22.22% |
| 54 | `CCc1nn(-c2cc(Oc3cc(C)ccc3C)ncn2)c(N)c1C#N` | 4.124% | 5.747% |
| 55 | `Cc1cc(F)ccc1CN1CCCC2(C1)OCCO2` | -0.5348% | 5.769% |
| 56 | `COc1ccc(CN2C[C@@H]3OCCN(C)[C@@H]3C2)cc1` | 9.244% | 19.27% |
| 57 | `O=C(NCCn1cccc1)c1c(O)cc(F)cc1F` | 9.901% | 20.88% |
| 58 | `Cc1cc(C)nc(N2CCC(c3cc(CCO)[nH]n3)C2)n1` (centres undefined) | 6.818% | 5.797% |
| 59 | `COC(=O)c1ccccc1NC(=O)c1c(C)cn(C)c1CC(=O)O` | 2% | 0% |

7 of the entries, repeated:

structure	A	B
Cc1nc(O)cc(CCNC(=O)CN2CCCCCC2)n1	4.433%	-19.74%
COCC(=O)N1CCc2c(nnn2C)C1COCCN1CCCC1 (centres undefined)	1.961%	22.86%
COC(=O)COn1c(SCC(=O)OC)nc2ccccc2c1=O	0%	-31.58%
CC(=O)N1CCCN(CCn2nc3ccccn3c2=O)CC1	10.05%	9.574%
COCc1nc(CN2CC(Cc3ccccc3)CC2=O)no1 (centres undefined)	4.878%	27.71%
Cn1nc(-c2cccs2)cc1[C@H]1CN2CC[C@H]1C[C@@H]2CN	-5.473%	18.92%
COCCN1CCC2(COCCN(Cc3ccc4c(c3)OCO4)C2)C1 (centres undefined)	2.941%	17.65%

Measurements from “University of Dundee, Small-Polar-MMV Screening Library” (2021), ChEMBL document CHEMBL3988442.